Results are given in words; binding and its absence hold for the method and conditions named.

The target of the experiment is Pseudomonas aeruginosa BioH (PA0502), wild type (Pseudomonas aeruginosa PAO1) (UniProt Q9I616). The experiment can be described thus: SEC; gel filtration on a Superdex 75 column; Streptococcus suis FakB2 (~33 kDa, known monomer) as size control; both purified.

For the substance “Pseudomonas aeruginosa BioH (PA0502), wild type (from UniProt Q9I616 1-240) (enzyme)”, the binding result was “no binding”.

Values taken from paper PMC9894557, “The opportunistic pathogen Pseudomonas aeruginosa exploits bacterial biotin synthesis pathway to benefit its infectivity” (PLOS Pathogens, 2023).
